# Results: PubChem BioAssay AID504467 (National Center for Advancing Translational Sciences (NCATS), 2011)
# The whole screen tested about 330,000 compounds, of which about 7,700 (2.3%) were called active. Inconclusive results, whose numbers are uncertain, are shown with a selection of clear calls. The call rests on the fitted dose curve; in most records, active means well fitted inhibition curve with a large enough effect; inconclusive means small, poorly fitted or top-dose-only effect, or effect the other way; inactive means flat fitted curve, though single readings scatter. A potency beside an inconclusive call is a rough fit, not a confirmed value.
# Test: qHTS screen for small molecules that inhibit ELG1-dependent DNA repair in human embryonic kidney (HEK293T) cells expressing luciferase-tagged ELG1; further: nearly all actives have a fitted effect of over 55% in size
# Details: HEK293T ELG1-luciferase reporter, luminescence, 16 h, DNA damage induced by 5-fluorouridine; activity change, negative = inhibition: at 46.1 µM (top of the series)
# Summary of the method: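 Luminescence from the luciferase reporter, measured 30 min after ONE-Glo reagent at room temperature, was the read-out. Beforehand, 2,000 cells per well were exposed for 16 hr at 37 °C to 5-fluorouridine together with compound or vehicle.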
# On the % scale 0 is the no-effect control and ±100 the full control effect; potency means the concentration at half of the fitted maximal effect.
Compound,"activity change, negative = inhibition",Potency
CCOc1ccc(Nc2nc(Cl)nc(NCCO)n2)cc1,inactive: 1.53%,
Nc1c(C(=O)N2CCCC2)sc2nc(-c3ccccc3)ccc12,,"inconclusive: 6.51 µM [activator, partial curve]"
Cc1cc(C)cc(OCc2ccc(C(=O)NN)o2)c1,,"inconclusive: 18.3 µM [inhibitor, partial curve, poor fit]"
Cn1nc(C(=O)NCc2ccc(F)cc2)c2ccccc2c1=O,,"inconclusive: 14.6 µM [activator, partial curve, poor fit]"
CCOc1ccc(C(=O)NCC(=O)NCC(c2ccc(OC)cc2)N2CCOCC2)cc1OCC (stereo not drawn),inactive: -7.17%,
COc1ccc(OC)c(N=C2SCCCN2C(=O)c2ccc(N3C(=O)CCC3=O)cc2)c1,inactive: 12.2%,
CN(CC(=O)Nc1ccc(Cl)cc1)C(=O)c1ccc(N2CCCC2=O)cc1,,"inconclusive: 29.1 µM [activator, single point]"
CCN(CC(=O)Nc1ccccc1C(F)(F)F)C(=O)c1cc(S(=O)(=O)N2CCCCCC2)ccc1OC,,"inconclusive: 16.4 µM [inhibitor, single point]"
CCOc1ccc(Nc2oc(-c3ccco3)nc2C#N)cc1,,"inconclusive: 32.6 µM [inhibitor, single point]"
S=c1[nH]nc(-c2ccc(Cl)cc2)n1-c1ccc2c(c1)OCCO2,inactive: 1.32%,
Cc1cc(N2CCOCC2)c2c(N)c(Br)cc(C)c2n1,,"inconclusive: 4.11 µM [inhibitor, partial curve, poor fit]"
O=C(Nc1ccc(S(=O)(=O)N2CCCC2)cc1)C1COc2ccccc2O1 (stereo not drawn),inactive: 7.27%,
Cc1cccnc1NC(=O)c1c(O)c2ccccc2n(C)c1=O,inactive: 27%,
CC1CC(C)(C)OC(C[N+]2(C)CCCCC2)O1 (stereo not drawn),inactive: -12.4%,
CNC(=S)N/N=C/c1c(C)cccc1Cl,,"inconclusive: 20.6 µM [activator, single point]"
COc1cc(C(=O)NCC(c2ccco2)N2CCOCC2)cc(OC)c1OC (stereo not drawn),inactive: -15.1%,
Cc1cc(=O)oc2c(C)c(OCC(=O)NCCCN3CCOCC3)ccc12,,"inconclusive: 20.6 µM [activator, single point]"
Cc1cccc(NC(=S)Nc2ccccn2)c1C,,"inconclusive: 11.6 µM [activator, partial curve, poor fit]"
Cc1cc(SCc2cccc(Cl)c2)nc(=O)[nH]1,,"inconclusive: 0.013 µM [inhibitor, full curve, poor fit]"
CNc1ccc(/C=C(\C#N)c2ccccn2)cc1[N+](=O)[O-],,"inconclusive: 2.59 µM [activator, full curve]"
O=C(NCCn1ccc2ccccc21)c1cccc([N+](=O)[O-])c1,,"inconclusive: 1.16 µM [activator, partial curve, poor fit]"
O=C(CNc1ccc(C(F)(F)F)cc1)Nc1cccc(S(=O)(=O)N2CCCC2)c1,inactive: -19.2%,
COc1ccc(Cl)cc1N1CC(c2nc3ccccc3[nH]2)CC1=O (stereo not drawn),,"inconclusive: 25.9 µM [inhibitor, single point]"

# 6 entries from above, set out differently.
Compound	activity change, negative = inhibition	Potency
Cn1nc(C(=O)NCc2ccc(F)cc2)c2ccccc2c1=O		inconclusive: 14.6 µM [activator, partial curve, poor fit]
CCOc1ccc(C(=O)NCC(=O)NCC(c2ccc(OC)cc2)N2CCOCC2)cc1OCC (stereo not drawn)	inactive: -7.17%	
COc1ccc(OC)c(N=C2SCCCN2C(=O)c2ccc(N3C(=O)CCC3=O)cc2)c1	inactive: 12.2%	
CN(CC(=O)Nc1ccc(Cl)cc1)C(=O)c1ccc(N2CCCC2=O)cc1		inconclusive: 29.1 µM [activator, single point]
CCN(CC(=O)Nc1ccccc1C(F)(F)F)C(=O)c1cc(S(=O)(=O)N2CCCCCC2)ccc1OC		inconclusive: 16.4 µM [inhibitor, single point]
CCOc1ccc(Nc2oc(-c3ccco3)nc2C#N)cc1		inconclusive: 32.6 µM [inhibitor, single point]

# More results follow:

Compound,"activity change, negative = inhibition",Potency
COc1cccc(-n2cnc3sc(C)cc3c2=O)c1,,"inconclusive: 16.4 µM [activator, single point]"
Cc1c(Cl)cccc1NC(=O)CSc1ncnc2c1cnn2CCO,,"inconclusive: 20.6 µM [inhibitor, single point]"
CN(C)C(CNC(=O)CSC(=S)N1CCCC1)c1ccccc1 (stereo not drawn),,"inconclusive: 16.4 µM [activator, partial curve]"
Cc1sc2nc(CSc3ccccc3)nc(N3CCC(C(N)=O)CC3)c2c1C,,"inconclusive: 29.1 µM [inhibitor, single point]"
COc1cccc(NC(=O)c2cc(-c3ccccn3)nc3ccccc23)c1,,"inconclusive: 16.4 µM [inhibitor, single point]"
O/N=C1\CCc2cc(Cl)ccc21,,"inconclusive: 20.6 µM [inhibitor, partial curve]"
O=C(Nc1nc2ccc3ccccc3c2s1)c1ccc(N2CCCCC2)c([N+](=O)[O-])c1,,"inconclusive: 29.1 µM [activator, partial curve, poor fit]"
Cc1nc(SCc2ccc(F)cc2)c2oc3ccccc3c2n1,,"inconclusive: 29.1 µM [inhibitor, single point]"
CCc1nc2sc3ccccc3c(=O)c2c(=O)n1CCOC,inactive: 8.64%,
C[C@H](CO)N1C[C@H](C)[C@@H](CN(C)C(=O)NC2CCCCC2)Oc2c(NC(=O)c3ccncc3)cccc2C1=O,,"inconclusive: 16.4 µM [activator, partial curve, poor fit]"
CCOC(CCn1ccc(O)c(Cc2ccc(Cl)cc2)c1=O)OCC,,"inconclusive: 18.3 µM [inhibitor, single point]"
O=C(COc1ccc(Br)cc1F)Nc1nnc(C2CC2)s1,,"inconclusive: 29.1 µM [activator, single point]"
Cn1cccc1-c1nc2ccc(NC(=O)c3cccs3)cc2[nH]1,,"inconclusive: 2.91 µM [activator, partial curve, poor fit]"
CCCC(=O)C1=C(c2ccccc2)C(C#N)(C#N)C(C#N)=C1N,inactive: 8.36%,
CCOC(=O)c1cccc(NC(=O)c2ccco2)c1,,"inconclusive: 25.9 µM [activator, single point]"
Cc1ccc(C(=O)Nc2nnc(CC(=O)N/N=C/c3ccc(O)c(O)c3)s2)cc1,,"inconclusive: 20.6 µM [activator, partial curve]"
COc1cc2c(cc1NC(=O)CN(C)Cc1ccc(OC)c(OC)c1)oc1ccccc12,,active: 14.6 µM
O=C(COc1ccccc1-c1ccccc1)NCCN1C(=O)S/C(=C\c2cccnc2)C1=O,,"inconclusive: 29.1 µM [inhibitor, single point]"
N#Cc1c(-c2ccccc2)nc(SCC(=O)Nc2ccc(OC(F)(F)Cl)cc2)[nH]c1=O,,"inconclusive: 20.6 µM [activator, single point]"
CCCC(=O)NC(c1ccc(OC)c(OC)c1)c1cc(Cl)c2cccnc2c1O (stereo not drawn),,"inconclusive: 6.51 µM [inhibitor, single point]"
O=C(Nc1ccc(F)cc1)Oc1ccccc1N1CCOCC1,,"inconclusive: 1.64 µM [activator, partial curve, poor fit]"
CCCCc1nc2cc(C(=O)N3CCNC(=O)C3)ccc2o1,,"inconclusive: 14.6 µM [activator, partial curve, poor fit]"
O=C1NC[C@@H](c2ccccc2)OC(=O)[C@H](Cc2ccc(F)cc2)C/C=C\C[C@H]1CC(=O)N(CCO)Cc1ccccc1,,active: 20.6 µM

Compound,"activity change, negative = inhibition",Potency
Cc1ccc(NS(=O)(=O)c2ccc3c(c2)n(C)c(=O)n3C)cc1C,inactive: 16.3%,
COc1cc(/C(C)=N/Nc2ccc(C(=O)O)cc2)cc(OC)c1OC,,"inconclusive: 20.6 µM [activator, partial curve]"
C=CCn1c(SC(CCO)C(=O)NCc2ccco2)nc2sc3c(c2c1=O)CCC3 (stereo not drawn),,"inconclusive: 23.1 µM [inhibitor, single point]"
CN1CCN(/N=C/c2ccc(-c3ccc([N+](=O)[O-])cc3Cl)o2)CC1,inactive: 10.2%,
CCc1cc2c(=O)c(-c3ccc4c(c3)OCCO4)coc2cc1OC(=O)c1ccco1,,"inconclusive: 2.59 µM [activator, partial curve]"
COc1cc(/C=N/N2CCOCC2)ccc1OC(=O)c1ccco1,,"inconclusive: 16.4 µM [inhibitor, partial curve, poor fit]"
O=C(c1cc(N2C(=O)C3C4CCC(C4)C3C2=O)ccc1Cl)N1CCN(c2ccccc2F)CC1 (stereo not drawn),,"inconclusive: 14.6 µM [inhibitor, partial curve, poor fit]"
CCN(c1ccccc1)S(=O)(=O)c1ccc(Oc2ccc(C(C)=O)cc2OC)nc1,,"inconclusive: 20.6 µM [inhibitor, single point]"
Cc1cc2cc(CCNC(=O)c3c(-c4ccccc4Cl)noc3C)c(=O)[nH]c2cc1C,,active: 13 µM
CC(C)(C)c1ccccc1NC(=S)NC1CCCCC1,inactive: -17.3%,
COc1ccc(-c2nc(C#N)c(NC(C)C)o2)cc1,,"inconclusive: 2.59 µM [activator, full curve]"
CC(=O)c1ccccc1N(C(=O)c1ccco1)C(C(=O)NC1CCCC1)c1ccc(C)cc1 (stereo not drawn),inactive: -1.99%,
O=C(CS(=O)(=O)c1ccccc1)Nc1nc(-c2ccc(F)cc2)cs1,,"inconclusive: 29.1 µM [inhibitor, single point]"
CC1CCCCN1S(=O)(=O)c1ccc(C(=O)Nc2nnc(-c3ccncc3)o2)cc1 (stereo not drawn),,"inconclusive: 20.6 µM [inhibitor, partial curve, poor fit]"
Cc1ccc(C)c(-n2c(C)cc(/C=N/NC(=O)c3c(C)nc4cc(C)ccn34)c2C)c1,,active: 18.4 µM
Nc1nc2ccccc2n1C(=O)c1ccco1,,"inconclusive: 5.8 µM [activator, partial curve]"
N#Cc1nc(-c2ccc(Cl)cc2)oc1NCc1ccco1,,"inconclusive: 10.3 µM [activator, single point]"
CC(C)(C)C(=O)NC(=S)N1CCc2ccccc21,inactive: -6.81%,
Cc1ccc(S(=O)(=O)Nc2cccc3ncccc23)s1,,"inconclusive: 29.1 µM [activator, single point]"
COCCNC(=S)Nc1ccc(N2CCOCC2)c(S(=O)(=O)Nc2ccccc2OC)c1,,"inconclusive: 13 µM [activator, partial curve, poor fit]"
C/C=C(\C)C(=O)NNC(=O)c1sc(-c2ccccc2)nc1C,inactive: 15.4%,
CCCCCCOC(=O)NCC(O)c1ccccc1 (stereo not drawn),,"inconclusive: 10.3 µM [activator, partial curve]"
